According to article PMC12644819 (Nature Communications, 2025):
No constants are given. Whether binding was seen depends on the method and setting. Binding seen in cells or lysates may run through a third protein. Some results given as binding are weak or reduced against the parent protein; the word gives no strength. Sequences can lack the tags named with a protein.

By UniProt entry, the sequences of proteins in these tests, tags left out. Residues count along the entry.
UniProt P0ADC1, residues 19-193: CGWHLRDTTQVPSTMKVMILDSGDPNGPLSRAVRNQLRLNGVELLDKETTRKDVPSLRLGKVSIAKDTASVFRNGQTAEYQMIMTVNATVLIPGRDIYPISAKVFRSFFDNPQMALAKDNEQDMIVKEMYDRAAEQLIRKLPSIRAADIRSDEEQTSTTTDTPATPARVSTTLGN
UniProt P31554, residues 25-784: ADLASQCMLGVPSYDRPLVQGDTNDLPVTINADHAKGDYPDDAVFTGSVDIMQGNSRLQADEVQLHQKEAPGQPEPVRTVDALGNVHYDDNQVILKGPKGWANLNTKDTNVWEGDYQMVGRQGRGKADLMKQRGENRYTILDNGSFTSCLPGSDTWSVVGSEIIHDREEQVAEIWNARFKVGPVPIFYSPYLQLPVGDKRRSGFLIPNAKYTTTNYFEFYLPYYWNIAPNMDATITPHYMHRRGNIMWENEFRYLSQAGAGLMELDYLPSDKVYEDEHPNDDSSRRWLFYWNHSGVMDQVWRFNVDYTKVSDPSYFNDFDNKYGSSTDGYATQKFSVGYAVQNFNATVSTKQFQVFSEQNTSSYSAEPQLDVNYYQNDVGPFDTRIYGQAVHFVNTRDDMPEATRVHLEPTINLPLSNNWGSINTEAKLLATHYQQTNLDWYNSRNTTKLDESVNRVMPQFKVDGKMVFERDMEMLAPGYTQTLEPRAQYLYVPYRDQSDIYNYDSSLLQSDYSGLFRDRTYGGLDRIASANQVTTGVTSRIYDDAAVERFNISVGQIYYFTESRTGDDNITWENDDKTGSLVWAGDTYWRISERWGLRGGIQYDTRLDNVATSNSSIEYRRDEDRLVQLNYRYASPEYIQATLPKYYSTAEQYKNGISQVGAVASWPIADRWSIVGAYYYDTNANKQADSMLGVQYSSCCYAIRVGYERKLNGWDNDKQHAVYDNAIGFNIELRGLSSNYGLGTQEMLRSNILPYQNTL

Columns and labels:
LptY^His (E. coli) [1] = molecular target: T1, LptY^His (E. coli) (UniProt P31063); test: pull-down; LptY^His nickel-affinity purification from DDM-solubilised envelope fraction; Western blot (Supplementary Fig. 5)
T1 sequence (chain, lipoprotein): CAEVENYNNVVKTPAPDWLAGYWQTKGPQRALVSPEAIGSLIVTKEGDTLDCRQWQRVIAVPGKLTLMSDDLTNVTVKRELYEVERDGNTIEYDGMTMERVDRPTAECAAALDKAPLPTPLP

LptY^His (E. coli) [2] = molecular target: T1, LptY^His (E. coli); test: pull-down; nickel-affinity pull-down of LptY^His or LptM^His from cells co-expressing endogenous LptD and LptD^β-barrel (Supplementary Fig. 10b)

## LptE (from UniProt P0ADC1 19-193)
LptY^His (E. coli) [1]
  binding: binds

## LptD (from UniProt P31554 25-784)
LptY^His (E. coli) [1]
  binding: binds
LptY^His (E. coli) [2]
  binding: binds

## CGLKGPLYFPPADKNAPPPTKPVETQTQSTVPDKNDRATGDGPSQVNY (peptide, UniProt P0ADN6 20-67, lipoprotein; acyl tails on the N-terminal Cys) [LptM]
LptY^His (E. coli) [1]
  binding: binds

B1: LptA (protein, UniProt P0ADV1 28-185)
chain: VTGDTDQPIHIESDQQSLDMQGNVVTFTGNVIVTQGTIKINADKVVVTRPGGEQGKEVIDGYGKPATFYQMQDNGKPVEGHASQMHYELAKDFVVLTGNAYLQQVDSNIKGDKITYLVKEQKMQAFSDKGKRVTTVLVPSQLQDKNNKGQTPAQKKGN
LptY^His (E. coli) [1]
  binding: binds
